# The supplement of paper PMC12889115
# The other results are listed elsewhere or left out. These are raw signals, not scaled to a control.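 In the initial screen, polymyxin B was used at a concentration that permeabilizes Salmonella's outer membrane but not its inner membrane. Maximum growth was set by DMSO wells with or without polymyxin B. Since plates varied, data were ranked per plate, and compounds giving the lowest OD600 advanced as hits.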
# Test system: Salmonella enterica serovar Typhimurium SL1344
# Experiment: bacterial growth OD600 after 18 h with compound and polymyxin B; higher = more bacterial growth (less inhibition)
# Conditions: 50 µM, Mueller-Hinton broth
Compound,bacterial growth OD600 (polymyxin B 1 µg/mL),bacterial growth OD600 (polymyxin B 0.75 µg/mL)
COCC1CCCCN1Cc1c[nH]nc1-c1ccc2cc(OC)ccc2c1 (stereo unspecified),0.859,–
COc1ccc2ccccc2c1CNCc1cccnc1N1CCCC(O)C1 (stereo unspecified),0.944,–
CN(CCc1ccccn1)[C@@H]1CCN(CC(C)(C)CN2CCOCC2)C[C@H]1O,–,0.872
C/C=C(\C)C(=O)N1CCC(C2(c3ccccn3)NC(=O)N(CCc3cccs3)C2=O)CC1 (stereo unspecified),–,0.884
C=C(C)CN(CC)Cc1nc(-c2ccc(C(F)(F)F)cc2)oc1C,0.611,–
COc1ccc(C(CC(=O)N2CCCCCC2)c2ccccc2)cc1 (stereo unspecified),0.01,–
Cn1cc(/C=C/C(=O)N2CCCC(C(=O)c3cccc(C(F)(F)F)c3)C2)cn1 (stereo unspecified),0.928,–
CCN1CCCC1CNC(=O)c1cnn(-c2ncc3c(n2)-c2ccccc2CCC3)c1C1CC1 (stereo unspecified),–,0.825
Cc1cnc(SCCN2CCOCC2)nc1C1CCCN(C(=O)Cc2c[nH]c3ccccc23)C1 (stereo unspecified),–,0.756
CCOC(=O)N1CCN(c2nc3cc(OC)c(OC)cc3cc2CNCc2ccccc2C(F)(F)F)CC1,–,0.879
Cc1c(C(C)NC(=O)CN2CCC(c3ccccc3)CC2)cnn1-c1ccccn1 (stereo unspecified),0.842,–
O=C(c1coc(COc2cccc(F)c2)n1)N1CCN(c2ccccn2)CC1,0.931,–
O=C(NC(CCn1cncn1)c1ccccc1)c1ccc2nc(C3CC3)oc2c1 (stereo unspecified),0.957,–
O=C(C1CCCC1)N1CCCC(N2CCN(c3cccc(C(F)(F)F)c3)CC2)C1 (stereo unspecified),0.719,–
Cc1oc(-c2ccccc2NC(=O)c2ccccc2)nc1CNC(=O)c1cnn(Cc2ccccc2)c1,–,0.785
Cc1cccc(C(=O)N2CCCC(Nc3ccc(F)cc3)C2)c1 (stereo unspecified),1.03,–

Compound,bacterial growth OD600 (polymyxin B 1 µg/mL),bacterial growth OD600 (polymyxin B 0.75 µg/mL)
COc1cc(CN2CCOc3ccc(C(C)(O)COc4ccccc4)cc3C2)cc(OC)c1OC (stereo unspecified),–,0.002
COCCCn1c(CN2C[C@@H](C)O[C@@H](C)C2)cnc1S(=O)(=O)C1CCCC1,–,0.773
Cc1cccc2nc(CN(C)c3nncc(-c4ccc(Cl)cc4)n3)[nH]c12,–,-0.003
CCN(Cc1nccn1C)C(=O)c1ccc(N2CCC(N(C)C)C2)nc1 (stereo unspecified),–,0.81
COc1ccc(F)c(CNC2CCCN(c3ncccn3)C2)c1 (stereo unspecified),0.848,–
CCn1c(-c2ccccc2F)nc2cc(C(=O)N(C)Cc3cccc(OC)c3)cc(NC(C)=O)c21,–,0.909
COCC1CCCCN1Cc1cn(-c2ccccc2)nc1-c1ccc2c(c1)OCO2 (stereo unspecified),0.813,–
COc1ccc(CCCNC(=O)c2ccc(N3CCN(C)C(C)C3)nc2)cc1 (stereo unspecified),1.14,–
COc1ccc(OC)c(CNC(=O)CCC2(Cc3ccc(OC)c4ccccc34)CCC(=O)N2)c1 (stereo unspecified),–,0.885
COc1ccc(-c2nn(-c3ccccc3C)cc2CN2CCCC(O)C2)cc1F (stereo unspecified),0.851,–
COC(=O)C1CCCCN1Cc1nc(-c2cccc(C(F)(F)F)c2)oc1C (stereo unspecified),0.967,–
Cc1cccc(-n2ncc3c2CCCC3NCc2cn(CC(N)=O)c3ccccc23)c1C (stereo unspecified),–,0.659
CCOC(=O)C1(C/C=C/c2ccccc2)CCCN(Cc2cnc(SC)nc2)C1 (stereo unspecified),0.615,–
OC1CCCN(CCCNc2nc3nonc3nc2N2CCCCCC2)C1 (stereo unspecified),0.983,–
OC1CCCN(CCNc2nc3nonc3nc2N2CCSCC2)C1 (stereo unspecified),–,0.737

# One compound at a time, as listed above.
# `COc1ccc(-c2nn(-c3ccccc3C)cc2CN2CCCC(O)C2)cc1F` (stereo unspecified) is listed with bacterial growth OD600 (polymyxin B 1 µg/mL): 0.851
# `CCn1c(-c2ccccc2F)nc2cc(C(=O)N(C)Cc3cccc(OC)c3)cc(NC(C)=O)c21` is listed with bacterial growth OD600 (polymyxin B 0.75 µg/mL): 0.909
